Test results published in article PMC7335806.
No constants are given. Whether binding was seen depends on the method and setting. Binding seen in cells or lysates may run through a third protein. Some entries that bind do so weakly or less than the wild type. Tags and fused reporters may be left off the sequences shown.

Sequences of proteins named here, by UniProt entry; tags and fusion partners are left off. A change or cut given only in a name is not applied to a line headed by its entry. A line that says so, or that is headed by a name, gives the form on record, which may keep a tag or linker.
GST-tagged human Sar1A (H79G) (Q9NR31, form named): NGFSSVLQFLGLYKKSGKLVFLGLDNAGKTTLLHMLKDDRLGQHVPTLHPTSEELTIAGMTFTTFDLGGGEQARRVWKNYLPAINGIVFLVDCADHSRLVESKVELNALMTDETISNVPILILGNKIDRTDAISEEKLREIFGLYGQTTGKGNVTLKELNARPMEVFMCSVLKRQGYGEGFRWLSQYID

Biological target: GST-tagged human Sar1A (H79G) (human) (UniProt Q9NR31)
Assay: pull-down; around 5 μg GST-Sar1A (H79G) on 10 μl GSH beads, loaded with GTPγS; incubated with 200 μl of 0.5 mg/ml HEK293T cell lysate in HKT buffer (100 mM KCl, 20 mM Hepes pH 7.2, 0.5% Triton X-100), 4 °C overnight; immunoblotting; only the target purified

binding: binds
B1: Wild-type HA-tagged mouse Fzd6 (receptor, UniProt Q61089 19-709)
chain: HSLFTCEPITVPRCMKMTYNMTFFPNLMGHYDQGIAAVEMGHFLHLANLECSPNIEMFLCQAFIPTCTEQIHVVLPCRKLCEKIVSDCKKLMDTFGIRWPEELECNRLPHCDDTVPVTSHPHTELSGPQKKSDQVPRDIGFWCPKHLRTSGDQGYRFLGIEQCAPPCPNMYFKSDELDFAKSFIGIVSIFCLCATLFTFLTFLIDVRRFRYPERPIIYYSVCYSIVSLMYFVGFLLGNSTACNKADEKLELGDTVVLGSKNKACSVVFMFLYFFTMAGTVWWVILTITWFLAAGRKWSCEAIEQKAVWFHAVAWGAPGFLTVMLLAMNKVEGDNISGVCFVGLYDLDASRYFVLLPLCLCVFVGLSLLLAGIISLNHVRQVIQHDGRNQEKLKKFMIRIGVFSGLYLVPLVTLLGCYVYELVNRITWEMTWFSDHCHQYRIPCPYQANPKARPELALFMIKYLMTLIVGISAVFWVGSKKTCTEWAGFFKRNRKRDPISESRRVLQESCEFFLKHNSKVKHKKKHGAPGPHRLKVISKSMGTSTGATTNHGTSAMAIADHDYLGQETSTEVHTSPEASVKEGRADRANTPSAKDRDCGESAGPSSKLSGNRNGRESRAGGLKERSNGSEGAPSEGRVSPKSSVPETGLIDCSTSQAASSPEPTSLKGSTSLPVHSASRARKEQGAGSHSDA
